Laboratory results taken from patent US20030119102A1.
Results are given in words; binding and its absence hold for the method and conditions named. Some entries that bind do so weakly or less than the wild type.

Sequences of proteins named here, by UniProt entry; tags and fusion partners are left off. A change or cut given only in a name is not applied to a line headed by its entry.
UniProt P04386: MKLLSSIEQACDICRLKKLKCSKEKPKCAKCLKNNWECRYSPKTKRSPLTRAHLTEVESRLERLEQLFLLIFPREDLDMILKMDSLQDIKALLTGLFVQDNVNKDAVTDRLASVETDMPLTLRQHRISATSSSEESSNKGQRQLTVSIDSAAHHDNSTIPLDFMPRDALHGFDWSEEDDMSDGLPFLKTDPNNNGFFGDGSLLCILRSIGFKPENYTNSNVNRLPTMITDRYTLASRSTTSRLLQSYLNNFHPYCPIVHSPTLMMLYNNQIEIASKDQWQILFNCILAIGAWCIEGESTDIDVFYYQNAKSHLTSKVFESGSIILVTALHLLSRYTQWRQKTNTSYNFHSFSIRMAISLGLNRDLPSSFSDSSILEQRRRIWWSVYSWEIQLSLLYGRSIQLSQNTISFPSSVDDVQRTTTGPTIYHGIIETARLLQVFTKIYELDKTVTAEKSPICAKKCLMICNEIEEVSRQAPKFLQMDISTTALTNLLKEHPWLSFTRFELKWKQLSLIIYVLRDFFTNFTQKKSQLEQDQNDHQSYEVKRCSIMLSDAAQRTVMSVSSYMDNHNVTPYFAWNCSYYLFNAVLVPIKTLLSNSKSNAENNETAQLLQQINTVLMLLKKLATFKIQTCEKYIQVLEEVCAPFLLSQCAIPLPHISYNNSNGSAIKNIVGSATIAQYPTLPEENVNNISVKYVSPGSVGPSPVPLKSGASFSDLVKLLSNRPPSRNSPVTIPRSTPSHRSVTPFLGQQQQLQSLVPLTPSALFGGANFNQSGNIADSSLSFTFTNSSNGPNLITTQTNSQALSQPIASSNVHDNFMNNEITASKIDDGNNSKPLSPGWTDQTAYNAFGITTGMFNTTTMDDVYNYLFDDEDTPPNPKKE
UniProt Q62897: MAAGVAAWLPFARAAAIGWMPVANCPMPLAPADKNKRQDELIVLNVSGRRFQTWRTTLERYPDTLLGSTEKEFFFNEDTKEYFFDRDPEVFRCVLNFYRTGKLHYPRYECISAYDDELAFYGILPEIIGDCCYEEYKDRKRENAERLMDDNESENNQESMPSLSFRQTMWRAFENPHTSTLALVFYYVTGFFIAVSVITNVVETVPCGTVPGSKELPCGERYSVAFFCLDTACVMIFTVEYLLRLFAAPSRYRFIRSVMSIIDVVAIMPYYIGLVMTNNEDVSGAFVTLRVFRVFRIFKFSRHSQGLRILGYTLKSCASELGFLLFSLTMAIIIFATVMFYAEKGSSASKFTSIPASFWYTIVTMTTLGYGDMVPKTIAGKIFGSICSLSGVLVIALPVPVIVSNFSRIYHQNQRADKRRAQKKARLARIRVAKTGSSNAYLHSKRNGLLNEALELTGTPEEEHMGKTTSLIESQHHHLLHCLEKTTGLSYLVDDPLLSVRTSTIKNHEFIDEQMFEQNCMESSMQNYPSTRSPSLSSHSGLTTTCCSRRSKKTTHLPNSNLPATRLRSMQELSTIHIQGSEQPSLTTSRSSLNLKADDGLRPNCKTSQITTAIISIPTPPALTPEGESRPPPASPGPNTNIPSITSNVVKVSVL
UniProt P05943: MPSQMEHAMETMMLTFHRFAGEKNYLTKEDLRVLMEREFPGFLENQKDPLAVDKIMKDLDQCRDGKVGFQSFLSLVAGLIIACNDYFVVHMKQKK
UniProt P05712: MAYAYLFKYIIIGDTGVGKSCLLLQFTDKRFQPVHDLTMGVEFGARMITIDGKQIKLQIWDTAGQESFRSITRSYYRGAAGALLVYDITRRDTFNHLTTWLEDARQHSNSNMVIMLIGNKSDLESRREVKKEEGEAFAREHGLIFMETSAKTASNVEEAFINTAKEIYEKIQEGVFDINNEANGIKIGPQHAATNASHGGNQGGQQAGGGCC
UniProt P50516: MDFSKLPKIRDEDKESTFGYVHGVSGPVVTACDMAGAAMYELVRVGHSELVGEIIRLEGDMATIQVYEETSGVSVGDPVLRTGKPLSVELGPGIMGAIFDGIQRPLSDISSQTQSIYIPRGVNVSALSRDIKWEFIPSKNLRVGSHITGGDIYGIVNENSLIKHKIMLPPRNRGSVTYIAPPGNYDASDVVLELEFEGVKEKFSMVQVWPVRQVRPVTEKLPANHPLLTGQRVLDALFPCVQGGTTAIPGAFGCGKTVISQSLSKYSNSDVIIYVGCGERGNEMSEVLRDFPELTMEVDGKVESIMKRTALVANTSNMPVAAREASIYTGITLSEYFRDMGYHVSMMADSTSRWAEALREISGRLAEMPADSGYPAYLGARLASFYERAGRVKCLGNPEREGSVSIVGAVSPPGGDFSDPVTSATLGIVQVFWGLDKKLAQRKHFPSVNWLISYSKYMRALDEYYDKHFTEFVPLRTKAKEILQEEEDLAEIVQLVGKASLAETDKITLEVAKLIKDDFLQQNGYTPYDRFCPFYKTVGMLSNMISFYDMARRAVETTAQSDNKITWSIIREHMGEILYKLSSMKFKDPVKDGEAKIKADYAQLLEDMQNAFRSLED
UniProt Q8VD63: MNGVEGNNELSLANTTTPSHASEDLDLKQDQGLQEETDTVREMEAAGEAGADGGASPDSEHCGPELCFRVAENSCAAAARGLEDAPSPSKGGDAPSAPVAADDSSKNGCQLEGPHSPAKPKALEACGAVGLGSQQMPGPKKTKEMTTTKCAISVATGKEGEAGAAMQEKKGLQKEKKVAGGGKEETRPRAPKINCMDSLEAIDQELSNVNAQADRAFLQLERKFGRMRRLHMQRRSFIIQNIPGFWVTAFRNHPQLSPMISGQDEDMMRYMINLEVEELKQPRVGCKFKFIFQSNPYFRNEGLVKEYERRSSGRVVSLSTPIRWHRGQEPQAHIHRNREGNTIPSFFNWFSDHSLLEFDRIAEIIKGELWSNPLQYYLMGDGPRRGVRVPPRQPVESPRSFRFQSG

How the values were obtained:
[1] = target: T1, {GAL4 DNA-binding domain}-{rKv4.3(1-180)} fusion (rat) (UniProt P04386+Q62897); assay: yeast two-hybrid screen
[2] = target: T1, {GAL4 DNA-binding domain}-{rKv4.3(1-180)} fusion (rat); assay: yeast two-hybrid
rKv4.2N (rat) = target: T2, rKv4.2N (rat) (UniProt Q63881); assay: yeast two-hybrid
T2 sequence (looked up): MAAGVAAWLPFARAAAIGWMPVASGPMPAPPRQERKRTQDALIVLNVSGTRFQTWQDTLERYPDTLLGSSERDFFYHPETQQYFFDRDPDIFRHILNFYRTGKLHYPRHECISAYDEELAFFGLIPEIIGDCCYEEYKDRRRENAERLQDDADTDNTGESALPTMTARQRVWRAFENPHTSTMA

binding [1]	binding [2]	binding (rKv4.2N (rat))	Substance
binds	binds	binds	rat 5p (from UniProt P05943 1-95)
binds	binds	binds	rat 7q (from UniProt P05712 1-212)
binds	binds	binds	rat 7s (from UniProt P50516 348-617)
binds	binds	binds	rat 33b07 (from UniProt Q8VD63 1-406)
